Results on two molecules are retold here after paper PMC7202667, “UNBRANCHED3 Expression and Inflorescence Development is Mediated by UNBRANCHED2 and the Distal Enhancer, KRN4, in Maize”.

Results are given in words; binding and its absence hold for the method and conditions named. In cells and extracts the contact can be indirect. Binding calls can cover weak binding; strength is not graded here. Sequences can lack the tags named with a protein.

Assay [1] concerns the target T1, OCS-binding factor OBF1 fused to the N-terminal domain of firefly luciferase (maize) (UniProt P24068).
T1 sequence: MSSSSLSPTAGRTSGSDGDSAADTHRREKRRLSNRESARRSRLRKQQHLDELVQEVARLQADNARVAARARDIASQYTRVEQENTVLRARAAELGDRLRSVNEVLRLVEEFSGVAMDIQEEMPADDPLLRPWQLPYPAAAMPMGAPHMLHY
Put plainly: split reporter; firefly luciferase complementation imaging; NLUC and CLUC fusions co-infiltrated by Agrobacterium GV3101 into N. benthamiana leaves, 48 h, abaxial epidermis coated with 1 mM luciferin, LUC signal imaged; three empty-vector control combinations on each leaf.

Assay [2] deals with UNBRANCHED2 (UB2) fused to the N-terminal domain of firefly luciferase (maize (Zea mays L.)). The description is as above.

Turning to “OCS-binding factor OBF4 fused to the C-terminal domain of firefly luciferase (maize)”, the binding result in assay [1] is given as “binds”.

B1: OCS-binding factor OBF1 fused to the C-terminal domain of firefly luciferase (protein, UniProt P24068 1-151)
chain: T1 sequence
On to B1, for which the binding result in assay [2] is on record as “binds weakly”.
